In the assay the target is T1, Cf-9-GFP (tomato (Solanum lycopersicum)) (UniProt Q40235).
T1 sequence: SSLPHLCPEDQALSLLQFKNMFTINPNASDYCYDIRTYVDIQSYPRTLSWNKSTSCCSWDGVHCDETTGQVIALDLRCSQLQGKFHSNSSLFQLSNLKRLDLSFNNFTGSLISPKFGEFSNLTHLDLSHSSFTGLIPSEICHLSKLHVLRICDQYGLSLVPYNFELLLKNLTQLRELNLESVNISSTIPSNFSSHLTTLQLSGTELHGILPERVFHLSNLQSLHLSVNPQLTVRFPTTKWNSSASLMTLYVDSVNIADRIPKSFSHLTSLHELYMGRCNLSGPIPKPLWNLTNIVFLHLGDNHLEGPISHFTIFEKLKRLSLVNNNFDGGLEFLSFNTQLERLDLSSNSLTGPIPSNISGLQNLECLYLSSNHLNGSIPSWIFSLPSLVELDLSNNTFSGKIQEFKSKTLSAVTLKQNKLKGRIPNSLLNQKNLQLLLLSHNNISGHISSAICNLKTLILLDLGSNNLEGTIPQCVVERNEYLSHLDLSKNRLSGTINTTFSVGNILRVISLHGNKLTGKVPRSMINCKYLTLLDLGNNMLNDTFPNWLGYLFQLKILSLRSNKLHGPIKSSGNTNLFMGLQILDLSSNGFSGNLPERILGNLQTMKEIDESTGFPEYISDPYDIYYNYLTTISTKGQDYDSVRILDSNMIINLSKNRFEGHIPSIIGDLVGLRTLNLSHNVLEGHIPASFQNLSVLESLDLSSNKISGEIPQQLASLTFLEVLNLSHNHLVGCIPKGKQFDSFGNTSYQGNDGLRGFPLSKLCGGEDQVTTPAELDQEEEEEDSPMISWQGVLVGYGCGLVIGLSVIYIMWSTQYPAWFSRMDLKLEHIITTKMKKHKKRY
The assay can be described thus: co-IP.

No constants are given. Whether binding was seen depends on the method and setting. In cells and extracts the contact can be indirect. Binding can be weak; no strength is given. Where a sequence is shown, tags or fusion partners need not be part of it.

Take “SlSOBIR1-HA (tomato (Solanum lycopersicum)) (receptor)”: the binding result was “binds”.

Source of the values: publication doi:10.1101/019471.
